Source: the supplement of paper PMC7661543
± gives the standard deviation of the averaged measurements. The effect of the compound repeats well; differences between the knockouts mostly do not.

Tested on: ZR-75-1
Assay: relative cell number vs DMSO control (72 h) (% of DMSO); higher = less growth inhibition (more cells)
Method: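 QMAP-Seq: a pool of 5 breast cancer cell lines (ZR-75-1, SKBR3, HCC-38, MDA-MB-231, BT-20), each carrying 12 doxycycline-inducible Cas9 sgRNA perturbations (11 knockouts plus non-targeting sgNT), was treated with compounds for 72 h at four 10-fold doses (10 nM-10 uM or 1 nM-1 uM range). Barcodes were amplified and sequenced, and cell number was interpolated from 293T spike-in standard curves. The result is expressed as % of the median of DMSO wells. Two biological replicates.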

[1] = sgRNA knockout: sgATF3, 1000 nM
[2] = sgRNA knockout: sgATF3, 10000 nM
[3] = sgRNA knockout: sgATF4, 1000 nM
[4] = sgRNA knockout: sgATF4, 10000 nM
[5] = sgRNA knockout: sgATF6, 1000 nM
[6] = sgRNA knockout: sgATF6, 10000 nM
[7] = sgRNA knockout: sgATG7, 1000 nM
[8] = sgRNA knockout: sgATG7, 10000 nM
[9] = sgRNA knockout: sgERN1, 1000 nM
[10] = sgRNA knockout: sgERN1, 10000 nM
[11] = sgRNA knockout: sgHSF2, 1000 nM
[12] = sgRNA knockout: sgHSF2, 10000 nM
[13] = sgRNA knockout: sgNFE2L2, 10 nM
[14] = sgRNA knockout: sgNFE2L2, 100 nM
[15] = sgRNA knockout: sgNFE2L2, 1000 nM
[16] = sgRNA knockout: sgNFE2L2, 10000 nM
[17] = sgRNA knockout: sgSLC35F2, 10 nM
[18] = sgRNA knockout: sgSLC35F2, 100 nM
[19] = sgRNA knockout: sgSLC35F2, 1000 nM
[20] = sgRNA knockout: sgSLC35F2, 10000 nM
[21] = sgRNA knockout: sgXBP1, 1000 nM
[22] = sgRNA knockout: sgXBP1, 10000 nM

Compound	relative cell number (sgRNA knockout: sgATF3, 10 nM)	relative cell number (sgRNA knockout: sgATF3, 100 nM)	relative cell number [1]	relative cell number (sgRNA knockout: sgATF4, 10 nM)	relative cell number (sgRNA knockout: sgATF4, 100 nM)	relative cell number [3]	relative cell number (sgRNA knockout: sgATF6, 10 nM)	relative cell number (sgRNA knockout: sgATF6, 100 nM)	relative cell number [5]	relative cell number (sgRNA knockout: sgATG7, 10 nM)	relative cell number (sgRNA knockout: sgATG7, 100 nM)	relative cell number [7]	relative cell number (sgRNA knockout: sgERN1, 10 nM)	relative cell number (sgRNA knockout: sgERN1, 100 nM)	relative cell number [9]	relative cell number (sgRNA knockout: sgHSF2, 10 nM)	relative cell number (sgRNA knockout: sgHSF2, 100 nM)	relative cell number [11]	relative cell number [13]	relative cell number [14]	also measured
CCOC(=O)c1ccc(N2NC(=O)C(=Cc3ccc([N+](=O)[O-])o3)C2=O)cc1 [PYR41]	114 ± 24	88.3 ± 4	94.2 ± 28	125 ± 11	88.5 ± 8.2	127 ± 10	105 ± 40	89.2 ± 6.7	93.4 ± 7.8	89.2 ± 13	90 ± 28	104 ± 51	96.6 ± 2.3	87.4 ± 4.1	116 ± 18	116 ± 12	103 ± 21	106 ± 1.2	111 ± 11	107 ± 21	relative cell number [2]: 61.4 ± 33; relative cell number [4]: 75.6 ± 11; relative cell number [6]: 91.5 ± 34; relative cell number [8]: 69.2 ± 35; relative cell number [10]: 101 ± 11; relative cell number [12]: 88.3 ± 4.2; relative cell number [15]: 114 ± 1.8; relative cell number [16]: 106 ± 28; relative cell number [17]: 93.2 ± 1.5; relative cell number [18]: 92.5 ± 16; relative cell number [19]: 122 ± 42; relative cell number [20]: 78.7 ± 24; relative cell number (sgRNA knockout: sgXBP1, 10 nM): 103 ± 4.3; relative cell number (sgRNA knockout: sgXBP1, 100 nM): 88.72 ± 0.81; relative cell number [21]: 104 ± 12; relative cell number [22]: 108 ± 6.6
C[C@]12CC[C@H](O)CC1=CC[C@@H]1[C@@H]2CC[C@]2(C)C(c3cccnc3)=CC[C@@H]12 [Abiraterone]	105 ± 8.3	109 ± 29	103 ± 8.2	128 ± 9.5	129 ± 15	115 ± 53	137 ± 11	90.5 ± 6.7	111 ± 28	111 ± 8.5	116 ± 2.9	97.8 ± 18	105 ± 23	101 ± 4.5	110 ± 1.8	121 ± 1	101.5 ± 0.76	101 ± 6.7	101 ± 30	101 ± 20	relative cell number (sgRNA knockout: sgATF3, 1 nM): 123 ± 8.6; relative cell number (sgRNA knockout: sgATF4, 1 nM): 86 ± 11; relative cell number (sgRNA knockout: sgATF6, 1 nM): 107 ± 51; relative cell number (sgRNA knockout: sgATG7, 1 nM): 115 ± 9.3; relative cell number (sgRNA knockout: sgERN1, 1 nM): 110 ± 3.3; relative cell number (sgRNA knockout: sgHSF2, 1 nM): 97.45 ± 0.59; relative cell number (sgRNA knockout: sgNFE2L2, 1 nM): 117 ± 1.9; relative cell number [15]: 100 ± 26; relative cell number (sgRNA knockout: sgSLC35F2, 1 nM): 102 ± 36; relative cell number [17]: 108 ± 39; relative cell number [18]: 61.8 ± 2.3; relative cell number [19]: 95.8 ± 7.2; relative cell number (sgRNA knockout: sgXBP1, 1 nM): 111.8 ± 0.8; relative cell number (sgRNA knockout: sgXBP1, 10 nM): 103 ± 5; relative cell number (sgRNA knockout: sgXBP1, 100 nM): 89.5 ± 22; relative cell number [21]: 99.8 ± 6.6
Cc1cc(N2CCOCC2)cc2[nH]c(-c3c(NC[C@@H](O)c4cccc(Cl)c4)cc[nH]c3=O)nc12	115 ± 9.4	68.8 ± 15	60.8 ± 14	65 ± 17	102 ± 54	118 ± 19	64.6 ± 9.6	87.4 ± 22	74.9 ± 32	82.5 ± 25	72.8 ± 1.8	64.4 ± 17	80.2 ± 8	72.7 ± 1.8	84.3 ± 17	107 ± 23	68.6 ± 9.3	76.4 ± 3.8	75.8 ± 8.3	104 ± 3.7	relative cell number [2]: 31.5 ± 0.56; relative cell number [4]: 27.9 ± 11; relative cell number [6]: 33.3 ± 17; relative cell number [8]: 31.1 ± 4.1; relative cell number [10]: 36.5 ± 4.9; relative cell number [12]: 32.5 ± 2.4; relative cell number [15]: 74.88 ± 0.27; relative cell number [16]: 24.4 ± 0.69; relative cell number [17]: 57.3 ± 19; relative cell number [18]: 90.1 ± 98; relative cell number [19]: 43.8 ± 24; relative cell number [20]: 41.7 ± 35; relative cell number (sgRNA knockout: sgXBP1, 10 nM): 82.4 ± 12; relative cell number (sgRNA knockout: sgXBP1, 100 nM): 88 ± 9.3; relative cell number [21]: 84.1 ± 5.2; relative cell number [22]: 31 ± 3.1
